# Test: Pharmacokinetics after single oral co-administered dose of morphine and oxycodone (about 3:2) in healthy subjects
# Details: for AUC0-∞ (dose adjusted) / Cmax: healthy subjects, n = 18; for Cmax: human, plasma, po
# Method: Values for the observed maximum plasma concentration (Cmax), total area under the plasma concentration-time curve (AUC0-∞) and the time to maximum plasma concentration (Tmax) were determined.
# [1] = single oral co-administered dose morphine/oxycodone 3 mg/2 mg
# [2] = single oral co-administered dose morphine/oxycodone 12 mg/8 mg
structure (smiles),measurement,setting,value
"CN1CC[C@]23c4c5ccc(O)c4O[C@H]2[C@@H](O)C=C[C@H]3[C@H]1C5 [Morphine, morphine]",AUC0-∞ (dose adjusted),[1],4.24 ng·h/mL/mg
same,AUC0-∞ (dose adjusted),[2],4.55 ng·h/mL/mg
same,Cmax,[1],3.9 ng/mL
same,Cmax,[2],16.1 ng/mL
same,Dose proportionality of plasma levels,"single-dose combination, 3 mg/2 mg to 12 mg/8 mg dose range, dose-normalized Cmax and AUC0-∞ within 80-125% limits",increase linearly in a dose-proportionate manner

# Source: patent US8222267B2 (priority 2009, dated 2012)
